Test results reported in the supplement of paper PMC11348887.
Structures can show the parent of a compound that is named as a salt. The list shows a part of the results. Small differences around the control level are noise.

What was measured:
Conditions in all cases: 5 µM; treatment: days 7-14 after plating, readout day 21
[1] = test system: hPSC-derived cortical neurons (WA09); test: nucleus area z-score vs screen plate; higher = larger nuclei (more mature)
[2] = test system: hPSC-derived cortical neurons (WA09); test: total neurite length per nucleus (MAP2) z-score; higher = more neurite growth
[3] = test system: hPSC-derived cortical neurons (WA09); test: nucleus roundness z-score vs screen plate; higher = rounder nuclei (more mature)
[4] = test system: hPSC-derived cortical neurons (WA09); test: KCl-induced FOS+/EGR-1+ double-positive nuclei fraction z-score (KCl minus unstimulated); higher = stronger activity-induced IEG response

| Compound | nucleus area z-score [1] | total neurite length per nucleus (z-score) [2] | nucleus roundness z-score [3] | KCl-induced FOS+/EGR-1+ double-positive nuclei fraction z-score [4] |
| --- | --- | --- | --- | --- |
| Nc1ncnc2c1c(-c1cccc(OCc3ccccc3)c1)cn2C1CC(CN2CCCC2)C1 (configuration not stated) | -6.77 | -2.92 | 0.247 | 4.95 |
| CCCCN1CCCC[C@H]1C(=O)Nc1c(C)cccc1C [Levobupivacaine HCl] | 0.379 | 0.378 | 0.564 | 1.33 |
| CCN(CC)CCNC(=O)c1cc(Cl)c(N)cc1OC [MetoclopraMide HCl] | 1.37 | 0.217 | -0.385 | -0.217 |
| CCOC(=O)c1ccc(N)cc1 [Benzocaine] | 0.199 | -0.103 | 0.265 | 1.23 |
| N#CCNC(=O)c1ccc(-c2ccnc(Nc3ccc(N4CCOCC4)cc3)n2)cc1 | -0.352 | 0.376 | 1.21 | 1.26 |
| Cc1cccc(Nc2nc(-c3ccncc3)cs2)c1 | -1.96 | 0.476 | 2.01 | 2.68 |
| CCCCC(=O)N(Cc1ccc(-c2ccccc2-c2nnn[nH]2)cc1)[C@H](C(=O)O)C(C)C.CCOC(=O)[C@H](C)C[C@@H](Cc1ccc(-c2ccccc2)cc1)NC(=O)CCC(=O)O | 0.266 | 0.207 | 0.473 | 0.265 |
| CCCC(=O)Nc1ncnc2c1ncn2[C@@H]1O[C@@H]2COP(=O)(O)O[C@H]2[C@H]1OC(=O)CCC [Dibutyryl-cAMP (Bucladesine)] | -0.0438 | 0.477 | 0.652 | 2.16 |
| O=C(Nc1ncc(SCCN2CCCC2)s1)[C@]1(c2ccc(S(=O)(=O)C3CC3)cc2)C[C@H]1C1CCCCC1 | -15.5 | -5.44 | 0.796 | -1.03 |
| c1ccc2c(-c3cnn4cc(-c5ccc(N6CCNCC6)cc5)cnc34)ccnc2c1 | -18.5 | -6.15 | -10.4 | -0.714 |
| Cc1nc(C(=O)NCC(=O)O)c(O)c2ccc(Oc3ccccc3)cc12 | 1.77 | 0.19 | 1.41 | 1.75 |
| COc1cc2c(c(OC)c1OC)-c1c(cc3c(c1OC)OCO3)CC(C)C(C)C2 (configuration not stated) [Schisandrin B (Sch B)] | -0.545 | -0.203 | 0.177 | -0.568 |
| CC(C=CC(=O)NO)=CC(C)C(=O)c1ccc(N(C)C)cc1 (configuration not stated) [Trichostatin A (TSA)] | -7.25 | -2.57 | -2.47 | -0.0416 |
| CCOc1cc([C@@H](CS(C)(=O)=O)N2C(=O)c3cccc(NC(C)=O)c3C2=O)ccc1OC | 1.23 | 1.48 | 0.618 | 0.0388 |
| CN1CCN(c2ccc(C(=O)Nc3n[nH]c4ccc(Cc5cc(F)cc(F)c5)cc34)c(NC3CCOCC3)c2)CC1 [Entrectinib (RXDX-101)] | -14.6 | -4.17 | -5.46 | -2.51 |
| COc1ccc2cccc(CCNC(C)=O)c2c1 [Agomelatine] | -0.702 | 0.435 | 1.8 | 3.36 |
| CCCCc1ncc(/C=C(\Cc2cccs2)C(=O)O)n1Cc1ccc(C(=O)O)cc1 [Eprosartan Mesylate] | -2.4 | -0.411 | -0.358 | -1.02 |
| C[C@@H]1C[C@H]2[C@@H]3CCC4=CC(=O)C=C[C@]4(C)[C@@]3(F)[C@@H](O)C[C@]2(C)[C@@]1(O)C(=O)CO [Dexamethasone (DHAP)] | 1.04 | 0.521 | 0.182 | 0.295 |
| Cc1c(Cc2ccc3ccccc3n2)c2cc(F)ccc2n1CC(=O)O | 0.3 | 0.833 | 1.21 | 0.306 |
| CNC(=O)Nc1ccc(-c2nc(N3CC4CCC(C3)O4)c3cnn(C4CCC5(CC4)OCCO5)c3n2)cc1 | -3.96 | -1 | -3.47 | -1.14 |
| CC(C)(O)c1ccccc1CC[C@@H](SCC1(CC(=O)O)CC1)c1cccc(/C=C/c2ccc3ccc(Cl)cc3n2)c1 [Montelukast Sodium] | 0.624 | 0.52 | 0.238 | -0.103 |
| CC#CC(=O)Nc1ccc2ncnc(Nc3cccc(Br)c3)c2c1 | 0.293 | 0.308 | -0.599 | 0.0375 |
| CC(=O)OCC(=O)[C@@]1(O)[C@H](C)C[C@H]2[C@@H]3CCC4=CC(=O)C=C[C@]4(C)[C@@]3(F)[C@@H](O)C[C@@]21C [Dexamethasone Acetate] | -0.975 | -0.759 | -1.48 | -1.87 |
| O=C(NOCC(O)CO)c1cc(Br)c(F)c(F)c1Nc1ccc(I)cc1F (configuration not stated) | -0.759 | 0.272 | -0.331 | -0.652 |

| Compound | nucleus area z-score [1] | total neurite length per nucleus (z-score) [2] | nucleus roundness z-score [3] | KCl-induced FOS+/EGR-1+ double-positive nuclei fraction z-score [4] |
| --- | --- | --- | --- | --- |
| C1=N/C2=N/c3ccc(OCCN4CCCC4)c(c3)COC/C=C/COCc3cccc(c3)C(=C1)N2 [Pacritinib (SB1518)] | -12 | -4.02 | -0.138 | -2.75 |
| CO[C@H]1/C=C\C=C(/C)C(=O)NC2=CC(=O)C(NCCN(C)C)=C(C[C@@H](C)C[C@H](OC)[C@H](O)[C@@H](C)/C=C(\C)[C@@H]1OC(N)=O)C2=O [17-DMAG (Alvespimycin) HCl] | -9.42 | -3.67 | -3.36 | -1.06 |
| COc1cc2ncnc(Nc3ccc(F)c(Cl)c3)c2cc1OCCCN1CCOCC1 [Gefitinib (ZD1839)] | 0.0365 | 0.0189 | -0.0623 | 1.23 |
| CCCCCCCN(CC)CCCC(O)c1ccc(NS(C)(=O)=O)cc1 (configuration not stated) [Ibutilide Fumarate] | 0.98 | -0.293 | -0.136 | -1.46 |
| COc1cc(N2CCN(C)CC2)ccc1Nc1nccc(-c2cn(C)c3cnccc23)n1 | -11.8 | -3.24 | -6.93 | -0.225 |
| CCN1C[C@H](C)n2c(c(O)c3c(=O)n(Cc4ccc(F)c(Cl)c4)nc(C(=O)NC)c32)C1=O | 1.12 | -0.839 | -0.823 | 0.383 |
| Cc1cncc(CN2CCC(=C3c4ccc(Cl)cc4CCc4cccnc43)CC2)c1 [Rupatadine Fumarate] | 0.611 | -0.355 | 0.276 | -0.0555 |
| CC1=Nc2ccc(Cl)cc2S(=O)(=O)N1 [Diazoxide] | 0.445 | 0.0682 | 1.21 | 1.2 |
| Cn1cnc([N+](=O)[O-])c1Sc1ncnc2[nH]cnc12 [Azathioprine] | -0.107 | 1.01 | 0.967 | 0.958 |
| CC1(C)CCC(c2ccc(Cl)cc2)=C(CN2CCN(c3ccc(C(=O)NS(=O)(=O)c4ccc(N[C@H](CCN5CCOCC5)CSc5ccccc5)c(S(=O)(=O)C(F)(F)F)c4)cc3)CC2)C1 [ABT-263 (Navitoclax)] | -3.69 | 2.35 | -4.68 | 8.54 |
| CN(C[C@@H]1COCCO1)S(=O)(=O)Nc1ccc2ccc3ncc(-c4cnn(C)c4)cc3c(=O)c2c1 | 0.883 | 1.4 | 0.894 | -0.481 |
| c1cc(-c2cnn3cc(-c4ccc(N5CCNCC5)cc4)cnc23)c2cccnc2c1 | -14.9 | -3.97 | -1.32 | -1.03 |
| CC(C)(C)NS(=O)(=O)c1cncc(-c2cc(F)c3nc(N)nn3c2)c1 | -0.34 | -0.716 | 0.144 | 1.04 |
| NCCCC(O)(P(=O)(O)O)P(=O)(O)O [Alendronate sodium trihydrate] | -0.296 | 0.369 | 0.292 | -0.424 |
| O=C(O)c1cc(-c2ccc(F)cc2F)ccc1O [Diflunisal] | -0.962 | -0.247 | 0.142 | -0.538 |
| C[C@@H]1CN(CC(=O)Nc2ccc3c(c2)Cc2cccc(-c4cc(=O)cc(N5CCOCC5)o4)c2S3)C[C@H](C)O1 | -0.763 | -0.494 | -0.276 | -0.2 |
| COc1ccc(COc2cc3oc(=O)c4cc(C(C)O)ccc4c3cc2OC)cc1 (configuration not stated) [Palomid 529 (P529)] | 1.13 | -0.83 | -0.249 | 0.0311 |
| O=c1c(O)c(-c2cc(O)c(O)c(O)c2)oc2cc(O)cc(O)c12 [Myricetin] | -0.525 | 0.56 | 0.66 | 0.497 |
| Nc1nc2[nH]cc(CCc3ccc(C(=O)N[C@@H](CCC(=O)O)C(=O)O)cc3)c2c(=O)[nH]1 [Pemetrexed Disodium Hydrate] | 0.935 | -0.121 | -0.503 | -0.322 |
| CC(C=CC1(O)C(C)=CC(=O)CC1(C)C)=CC(=O)O (configuration not stated) [Abscisic Acid (Dormin_] | 1.2 | 0.633 | 0.484 | -0.518 |
| COc1c(N2C[C@@H]3CCCN[C@@H]3C2)c(F)cc2c(=O)c(C(=O)O)cn(C3CC3)c12 [Moxifloxacin HCl] | -0.156 | -0.0834 | 0.518 | 1.19 |
| COc1ccc(S(=O)(=O)Nc2nc(-c3cccc([N+](=O)[O-])c3)cs2)cc1OC | 0.712 | 1.89 | 1.19 | 1.4 |
| C[C@@H]1O[C@@H](O[C@H]2[C@H](Oc3cc(O)c4c(c3)O[C@H](c3ccc(O)cc3)CC4=O)O[C@H](CO)[C@@H](O)[C@@H]2O)[C@H](O)[C@H](O)[C@H]1O [Naringin] | 2.81 | -1.82 | -1.76 | -0.506 |
| COCC[n+]1c2c(n(Cc3cnccn3)c1C)C(=O)c1ccccc1C2=O [YM155 (Sepantronium Bromide)] | -8.39 | -1.53 | 0.971 | -1 |

Ordered by number of heavy atoms (ascending): some entries from above.

| Compound | nucleus area z-score [1] | total neurite length per nucleus (z-score) [2] | nucleus roundness z-score [3] | KCl-induced FOS+/EGR-1+ double-positive nuclei fraction z-score [4] |
| --- | --- | --- | --- | --- |
| NCCCC(O)(P(=O)(O)O)P(=O)(O)O [Alendronate sodium trihydrate] | -0.296 | 0.369 | 0.292 | -0.424 |
| O=c1c(O)c(-c2cc(O)c(O)c(O)c2)oc2cc(O)cc(O)c12 [Myricetin] | -0.525 | 0.56 | 0.66 | 0.497 |
| Cc1cncc(CN2CCC(=C3c4ccc(Cl)cc4CCc4cccnc43)CC2)c1 [Rupatadine Fumarate] | 0.611 | -0.355 | 0.276 | -0.0555 |
| CN(C[C@@H]1COCCO1)S(=O)(=O)Nc1ccc2ccc3ncc(-c4cnn(C)c4)cc3c(=O)c2c1 | 0.883 | 1.4 | 0.894 | -0.481 |
